According to PubChem BioAssay AID1347423 (Functional Genomics Laboratory (NCATS/FGL), 2020):
About 210 (0.4%) of roughly 52,000 sequences were called active.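 Rule for the calls: active = gene whose silencing raises cell survival under the drug, median off-target-corrected z-score across its silencing RNAs 2 or more; inactive = the rest.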 The list shows a part of the results.

assay: Resistance to Poly (ADP-Ribose) Polymerase inhibitor: Gene Identification via Genome-wide siRNA Screen; settings: mouse BRCA2 R2336H ES cells, olaparib, CellTiter-Glo viability; stronger effect = higher value
Procedure, shortened: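 Mouse BRCA2 R2336H ES cells were reverse-transfected with siRNA (20 nM final), treated at 48 h with 500 nM olaparib, and read by CellTiter-Glo after 72 h. Scores: MAD-based z per siRNA, median per gene, seed off-target correction.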

Sequence | z-score
GGACCUAGAUUUUCUACACTT against Cask | inactive: 1.12
GGACUUUGAGUUAAAUGCATT against Myh7 | inactive: -0.00646
GGAAGUCCUAGUCAUCUUUTT against Mgat2 | inactive: 0.739
GGGAAAAUCAAACAAAACCTT against Tcfap4 | inactive: 3.27
CGAAACUGGAGAUGUUAUATT against Serpine1 | inactive: 0.503
GCGAGAUGUCCUCAACAAGTT against Dusp16 | inactive: 2.16
GGAGAAUGUGCCUACUUGATT against Clra | inactive: 0.851
GCUGACAAAACUGCUAAACTT against Catnb | inactive: 2.33
GGAGUUUGAUGAAUCGUCCTT against 2610025M23Rik | inactive: -0.595
GCCCGAGGCAUUGAAUUUGTT against 5033425B17Rik | inactive: 0.983
CCUACCUGAUUGUGACAUUTT against Arl6ip1 | inactive: -0.37
GGUUUGUAUCUCACUUUUGTT against Olfr1247 | inactive: -0.109
GGAAGUGACAGCUUUCGUCTT against 2310061B02Rik | inactive: -0.157
CCAUCUAUCUGGGAUCUCGTT against Cyp2a4 | inactive: -2.52
GGGAGAUUGGAAACAAAAATT against Hsd3b4 | inactive: -0.11
GGAACUUCAUCCAAACUGATT against Ap4m1 | inactive: 1.3
GGCAUUGUUUUCAUUGUGGTT against Cldn7 | inactive: 1.07
GGAUAAGGACAAUCAACUATT against Stab2 | inactive: 1.65
CGGGAUUCAUAGAAACAAATT against Dcamkl1 | inactive: 1.47
GGGAGGAGAGGACAAAUUATT against Ywhae | inactive: -1.45
GGUAGAGCAACUGUUUGCGTT against Myl7 | inactive: 0.577
GCUUUUGAUAACUGCCUGGTT against 2310002A05Rik | inactive: 0.74
GGUCGUGUACUCGUUCAGUTT against Pcdh10 | inactive: 0.201

Sequence | z-score
GGAACUCCAGCUUUUGGUCTT against Sox13 | inactive: -0.181
GGUGCUAUUCUUUCUUGUCTT against Slc12a3 | inactive: -0.561
GGAACGAACUAAGAAUGGATT against Mapk8 | inactive: -0.299
GGACACCUUACAUUAUGAATT against Rasgrf1 | inactive: 0.774
GGUGAUCUGGGUGUUGAUUTT against 2900084M01Rik | inactive: -0.0208
GGAUGCCAUUUACCGUGCUTT against Olfr1403 | inactive: 0.858
GGCCAUUCAGAAGAUGCAGTT against Snapc2 | inactive: 0.45
CCCUGAAUACUCUGAGUGGTT against Ucn | inactive: 0.0743
GGAGUUAAGCUAGAGAACUTT against 9330196J05Rik | inactive: 0.375
GGAUCUGACUGAAGAUCACTT against Asgr1 | inactive: 1.91
GGUACAUGCUCAAGUUAUATT against Bmp15 | inactive: -0.203
GGACUACCUGUGUAUGCUCTT against Wdr40b | inactive: 1.37
GGGCCAUUACAGAUGUGUUTT against Ly96 | inactive: -1.19
GCAGCAGGAUUUCUCCAUUTT against Tcfl4 | inactive: 0.3
GGGACUGUAUAUGUAAAGATT against 9130014G24 | inactive: 1.16
GGAAGAGCCUGAGAAAAGCTT against Perp | inactive: 0.285
GGCUGAAGACAAACAAAAGTT against Tm9sf2 | inactive: 1.81
GGAUGUUCAAGCGCAGAGATT against Gtf3a | inactive: -0.988
GGAGGAGUAUGAUGAAUAUTT against Anp32a | inactive: -1.42
GGCCAGGAAAUAUGAAAUATT against Phtf1 | inactive: -0.2
GGACAUUUUAUAAAUGGUGTT against Wdr21 | inactive: 0.105
GCAGGUUCAGGCAGUAAUUTT against Kpna4 | inactive: -1.9
GGGAUUCAAGAAGUCCUGUTT against Elf2 | inactive: 0.151

Sequence | z-score
GCAGAAAAGGCGAGUUUAUTT against Phf19 | inactive: -0.35
CGACUUUGGAGAAUUUCAATT against Ap1gbp1 | inactive: 0.314
GCUGACUUCACAUUUGGCUTT against Mms19l | inactive: 0.853
GCCGAAGUGACAAUGUCUCTT against Tbc1d14 | inactive: -0.0571
GGUCCUGAGCACAUAGACUTT against 0610007P14Rik | inactive: 0.74
AUGGCUAUUUUGAAACCUCTT against H2-M10.3 | inactive: 2.38
GCUACAAAGCGAUGUUUCATT against Pola2 | inactive: -1.88
GGUGUCCUCUUUGUUCAUGTT against Sgce | inactive: -0.311
GCGAAAUCUUUGUCACUAATT against Sertad4 | inactive: 0.937
GCUUAUGAGACUCAUUUAATT against 3230401D17Rik | inactive: 0.738
GGCAGAGAUUAAGAACUGUTT against Cd97 | inactive: -0.589
CCUCAUGUCACUUUAACAUTT against Ccl7 | inactive: 0.48
GGAUGUUAGUCCAUUUGGCTT against Gpc5 | inactive: -0.173
GGACGAUAAAUUCACUGUUTT against Inpp5d | inactive: -0.166
CCAUAUCAGUAUUUAGAACTT against Syt9 | inactive: 0.27
CCAAUCGAUACAUCAUUUUTT against Gcl | inactive: 1.54
CCUCAUCAAAGUCCGUCUATT against AW491445 | inactive: 1.4
CCGAGUAUGAGAAAUAUGATT against Ext1 | inactive: 0.542
GGAAUAAUUGGUGUUAAAGTT against Hnrpk | inactive: -0.376
GGCCUGAGGACUAUGUUUUTT against C1s | inactive: 1.41
GGAGAUCCUAGGCUUGAACTT against Chx10 | inactive: 0.887
